# Reference: article PMC5796987
# Numbering of substitutions follows the chain as printed. These are yes or no findings as the source states them, for the method shown. Binding seen in cells or lysates may run through a third protein. Binding can be weak; no strength is given. For part of these data: Where a sequence is shown, tags or fusion partners need not be part of it.
# B1: PLCγ1 (phosphoinositide-specific phospholipase γ1), endogenous in human OA chondrocytes (protein, UniProt P19174 1-1290)
# chain: MAGAASPCANGCGPGAPSDAEVLHLCRSLEVGTVMTLFYSKKSQRPERKTFQVKLETRQITWSRGADKIEGAIDIREIKEIRPGKTSRDFDRYQEDPAFRPDQSHCFVILYGMEFRLKTLSLQATSEDEVNMWIKGLTWLMEDTLQAPTPLQIERWLRKQFYSVDRNREDRISAKDLKNMLSQVNYRVPNMRFLRERLTDLEQRSGDITYGQFAQLYRSLMYSAQKTMDLPFLEASTLRAGERPELCRVSLPEFQQFLLDYQGELWAVDRLQVQEFMLSFLRDPLREIEEPYFFLDEFVTFLFSKENSVWNSQLDAVCPDTMNNPLSHYWISSSHNTYLTGDQFSSESSLEAYARCLRMGCRCIELDCWDGPDGMPVIYHGHTLTTKIKFSDVLHTIKEHAFVASEYPVILSIEDHCSIAQQRNMAQYFKKVLGDTLLTKPVEISADGLPSPNQLKRKILIKHKKLAEGSAYEEVPTSMMYSENDISNSIKNGILYLEDPVNHEWYPHYFVLTSSKIYYSEETSSDQGNEDEEEPKEVSSSTELHSNEKWFHGKLGAGRDGRHIAERLLTEYCIETGAPDGSFLVRESETFVGDYTLSFWRNGKVQHCRIHSRQDAGTPKFFLTDNLVFDSLYDLITHYQQVPLRCNEFEMRLSEPVPQTNAHESKEWYHASLTRAQAEHMLMRVPRDGAFLVRKRNEPNSYAISFRAEGKIKHCRVQQEGQTVMLGNSEFDSLVDLISYYEKHPLYRKMKLRYPINEEALEKIGTAEPDYGALYEGRNPGFYVEANPMPTFKCAVKALFDYKAQREDELTFIKSAIIQNVEKQEGGWWRGDYGGKKQLWFPSNYVEEMVNPVALEPEREHLDENSPLGDLLRGVLDVPACQIAIRPEGKNNRLFVFSISMASVAHWSLDVAADSQEELQDWVKKIREVAQTADARLTEGKIMERRKKIALELSELVVYCRPVPFDEEKIGTERACYRDMSSFPETKAEKYVNKAKGKKFLQYNRLQLSRIYPKGQRLDSSNYDPLPMWICGSQLVALNFQTPDKPMQMNQALFMTGRHCGYVLQPSTMRDEAFDPFDKSSLRGLEPCAISIEVLGARHLPKNGRGIVCPFVEIEVAGAEYDSTKQKTEFVVDNGLNPVWPAKPFHFQISNPEFAFLRFVVYEEDMFSDQNFLAQATFPVKGLKTGYRAVPLKNNYSEDLELASLLIKIDIFPAKENGDLSPFSGTSLRERGSDASGQLFHGRAREGSFESRYQQPFEDFRISQEHLADHFDSRERRAPRRTRVNGDNRL
# Experiments:
# HA-PLCγ1 Y783A = biological target: T1, HA-PLCγ1 Y783A (UniProt P19174); test: co-IP; lysates of human OA chondrocytes transfected with HA-PLCγ1 or HA-PLCγ1 Y783A for 48 h; 400 μg protein with Protein A&G Sepharose and anti-PLCγ antibody, 3 h at 4°C; blotted with PLCγ1 and Akt antibodies
# T1 sequence: B1 chain with Y783A
# myc-Akt = test: co-IP; lysates of human OA chondrocytes transfected with myc-Akt or myc-Akt S473A for 48 h; 400 μg protein with Protein A&G Sepharose and anti-Akt antibody, 3 h at 4°C; blotted with PLCγ1 and Akt antibodies
# myc-Akt S473A = test: as above
Molecule,binding (HA-PLCγ1 Y783A),binding (myc-Akt),binding (myc-Akt S473A)
"Akt (protein kinase B), endogenous in human OA chondrocytes",binds,–,–
B1,–,binds,binds
